According to PubChem BioAssay AID743266 (National Center for Advancing Translational Sciences (NCATS), 2014):
In all, about 410,000 compounds went through this assay and about 310 (0.076%) were called active. Inconclusive results, whose numbers are uncertain, are shown with a selection of clear calls. Calls come from the whole dose curve; as a rule, active = well fitted activation curve with a large enough effect; inconclusive = small, poorly fitted or top-dose-only effect, or another doubt; inactive = no such curve, though single readings can be large or run the other way. A potency beside an inconclusive call is a rough fit, not a confirmed value.

Protein sequences, listed by entry. Tags and fused reporters are not part of them.
UniProt Q03431, whole entry, looked up: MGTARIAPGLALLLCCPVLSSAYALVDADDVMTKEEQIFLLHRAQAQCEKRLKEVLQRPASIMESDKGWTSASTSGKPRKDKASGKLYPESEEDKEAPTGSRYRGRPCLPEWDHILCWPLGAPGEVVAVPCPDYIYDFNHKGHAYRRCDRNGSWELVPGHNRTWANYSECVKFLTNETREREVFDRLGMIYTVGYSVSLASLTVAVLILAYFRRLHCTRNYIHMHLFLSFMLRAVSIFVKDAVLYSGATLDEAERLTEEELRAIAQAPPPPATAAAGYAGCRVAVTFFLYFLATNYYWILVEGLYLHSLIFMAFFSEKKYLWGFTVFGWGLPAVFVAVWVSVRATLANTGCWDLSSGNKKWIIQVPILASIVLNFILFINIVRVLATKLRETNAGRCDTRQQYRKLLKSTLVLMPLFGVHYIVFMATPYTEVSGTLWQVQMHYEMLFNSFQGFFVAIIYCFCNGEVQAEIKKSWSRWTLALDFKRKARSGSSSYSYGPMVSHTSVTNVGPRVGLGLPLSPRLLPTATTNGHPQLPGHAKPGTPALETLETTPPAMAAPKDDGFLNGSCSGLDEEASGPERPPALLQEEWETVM

The compounds below were run against Parathyroid hormone/parathyroid hormone-related peptide receptor (Homo sapiens) (UniProt Q03431) (assay: qHTS for PTHR1 Agonists: Primary Screen). Conditions: HEK293 GP2 PTHR1 cells, GloSensor cAMP luminescence, 1 h; activation: at 115 µM (top of the series) unless noted; series mostly up to 115 µM.
In short: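 HEK-293-derived GP2 cells expressing PTHR1 and a GloSensor cAMP reporter, 3,000/well, plated overnight, given luciferin plus IBMX (each 0.5 mM as added) for 1 h at 37 °C, then compound for 1 h at 37 °C. Luminescence was read after 15 min at room temperature.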
Note: nearly all actives have a fitted effect of over 55% in size.
Potency is the fitted concentration of half-maximal effect.

Potency, inconclusive:
Cc1noc(/C=C/N(C)C)c1S(=O)(=O)N1CCCC(C(=O)Nc2ccccc2F)C1 (stereo not given) 50.1 µM [activator, partial curve, poor fit]
O=C(O)CSCc1cnn(-c2ccccc2)c1-n1cccc1 6.31 µM [activator, partial curve]
CNCCOc1ccc(Cl)c(Cl)c1 44.7 µM [activator, partial curve, poor fit]
COc1ccc(NC(=O)CCCC(=O)NCCc2ccc(OC)c(OC)c2)cc1 56.2 µM [activator, partial curve, poor fit]
COc1ccc(S(=O)(=O)c2c(O)c3ccc(C(=O)NCc4ccccc4)cc3[nH]c2=O)cc1 126 µM [activator, single point]
COc1cc(C2C(=O)N(C3CCCCC3)CC(=O)N2CCC2=CCCCC2)ccc1OC(C)C (stereo not given) 126 µM [activator, single point]

A draw from above in order of length of the SMILES, rising.
Potency, inconclusive:
COc1ccc(NC(=O)CCCC(=O)NCCc2ccc(OC)c(OC)c2)cc1 56.2 µM [activator, partial curve, poor fit]
Cc1noc(/C=C/N(C)C)c1S(=O)(=O)N1CCCC(C(=O)Nc2ccccc2F)C1 (stereo not given) 50.1 µM [activator, partial curve, poor fit]
COc1cc(C2C(=O)N(C3CCCCC3)CC(=O)N2CCC2=CCCCC2)ccc1OC(C)C (stereo not given) 126 µM [activator, single point]

Next part:

outcome, inactive:
COc1ccc(-c2cc3nc(C)c(CCC(=O)Nc4cccc(C(F)(F)F)c4)c(C)n3n2)c(OC)c1
O=C(Oc1ccccc1N1C(=O)C2CCCCC2C1=O)c1ccccc1 (stereo not given)

activation, inactive:
CSc1ccc(C2c3c(oc4cc(C)cc(C)c4c3=O)C(=O)N2CCO)cc1 (stereo not given) -3.94%
O=C(Nc1ccc(Cl)cc1)/C(=C/c1cccc(O)c1)c1nc2ccccc2s1 -38%
COc1cccc(C(=O)Nc2ccc(-n3nncc3-c3ccccc3)cc2)c1 -24.2%
CCOC(=O)[C@H]1[C@H]2COc3ccc(Br)cc3[C@@H]2N2C(=O)c3cc(F)c(F)cc3NC(=O)[C@@]12C -39.6%
Cc1onc(-c2c(F)cccc2Cl)c1C(=O)Nc1ccc(OC(C)C)cc1 -46.1%
C=CCc1cccc(C=Nc2cc(Br)ccc2O)c1O -21.1%
CCCCN1C[C@H](CSC)[C@@H](CC(=O)Nc2ccc(Br)cc2)C1=O -18.4%

activation, inconclusive:
CCOc1ccc(NC(=O)N(Cc2c[nH]c3ccccc23)C2CCCCCC2)cc1 49.5% [activator]
COc1ccc(C2C(C(=O)Nc3ccccc3OC)=C(C)Nc3c(C(=O)Nc4ccccc4)cnn32)c(OC)c1 (stereo not given) 43.7% [activator]
COc1ccccc1NC(=S)N1CCN(C(=O)c2ccco2)CC1 33.2% [activator]
CCc1cccc(C)c1NC(=O)C1CCN(c2nn3c(=O)cc(C)nc3s2)CC1 30.1% [activator]
COc1ccc(C2CC(=O)C3=C(C2)Nc2ncnn2C3c2ccccc2C)cc1 (stereo not given) 52.6% [activator] [at 57.5 µM]
